In paper doi:10.1101/2022.09.16.508286:

What was measured:
[1] = biological target: T1, SLC25A46 (human (endogenous in fibroblasts)) (UniProt Q96AG3); assay: co-IP
T1 sequence: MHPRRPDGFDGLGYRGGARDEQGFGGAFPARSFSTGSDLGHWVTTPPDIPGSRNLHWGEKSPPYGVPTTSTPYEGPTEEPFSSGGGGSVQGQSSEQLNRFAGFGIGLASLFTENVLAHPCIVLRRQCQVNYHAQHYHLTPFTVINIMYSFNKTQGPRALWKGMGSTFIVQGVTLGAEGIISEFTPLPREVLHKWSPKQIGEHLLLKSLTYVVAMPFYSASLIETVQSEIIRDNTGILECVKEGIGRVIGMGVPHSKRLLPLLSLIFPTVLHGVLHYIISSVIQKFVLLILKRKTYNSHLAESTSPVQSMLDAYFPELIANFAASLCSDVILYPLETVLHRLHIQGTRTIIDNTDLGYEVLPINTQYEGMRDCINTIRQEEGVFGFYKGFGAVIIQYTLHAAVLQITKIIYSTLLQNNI

[2] = biological target: OPA1 (human (endogenous in fibroblasts)); assay: co-IP

binding [1]: binds
Molecule: OPA1 (human (endogenous in fibroblasts))

binding [2]: binds
B1: SLC25A46 (protein, UniProt Q96AG3 1-418)
chain: T1 sequence

These are yes or no findings as the source states them, for the method shown. Binding seen in cells or lysates may run through a third protein. Binding can be weak; no strength is given. One block for each molecule: values may come before it.
